The record followed here is PMC12645432 (ACS Chemical Biology, 2025).

The nature of the data set: solid-phase peptide synthesis. As to conditions: coupling step.

As to cys^34-ser^72-Lys(Gly2-biotin), the step yield worked out at 20% yield.
Next, D-CXCL8-Lys(Gly2-biotin): 56% yield.
